In publication PMC2660430 one finds binding data, which are given here for one molecule.

Chains of the proteins cited; added tags and fusions are not shown.
UniProt P50250: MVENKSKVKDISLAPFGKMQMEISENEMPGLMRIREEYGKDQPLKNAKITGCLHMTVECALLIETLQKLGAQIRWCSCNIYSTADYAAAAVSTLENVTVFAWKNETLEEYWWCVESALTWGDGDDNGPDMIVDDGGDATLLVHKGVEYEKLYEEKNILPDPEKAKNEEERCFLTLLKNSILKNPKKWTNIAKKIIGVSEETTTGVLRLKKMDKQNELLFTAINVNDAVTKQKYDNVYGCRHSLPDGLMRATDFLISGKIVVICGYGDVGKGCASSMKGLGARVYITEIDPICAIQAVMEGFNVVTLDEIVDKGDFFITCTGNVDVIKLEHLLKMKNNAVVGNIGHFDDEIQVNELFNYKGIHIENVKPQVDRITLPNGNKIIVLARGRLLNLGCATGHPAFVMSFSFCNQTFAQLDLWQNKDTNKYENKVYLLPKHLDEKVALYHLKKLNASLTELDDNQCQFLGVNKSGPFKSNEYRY

The target in this assay is PfSAHH (recombinant S-adenosyl-L-homocysteine hydrolase) (P. falciparum strain 3D7) (UniProt P50250). The assay can be described thus: SPR; BIAcore X; SAHH amine-coupled to CM5 chip, oxidized with 0.5 mM DTNB; analyte 10 µM in HBS buffer (10 mM HEPES, 150 mM NaCl, 3.4 mM EDTA, 0.005% Nonidet P-40, pH 7.4), 25°C, 10 µl/min; elution with 2 mM DTT; FC2-FC1; both purified. (In general: SPR reads the build-up and loss of mass on a sensor chip optically.)

These are yes or no findings as the source states them, for the method shown.

B1: PfTrx1 (wild type thioredoxin) (protein, UniProt Q7KQL8 1-104)
chain: MVKIVTSQAEFDSIISQNELVIVDFFAEWCGPCKRIAPFYEECSKTYTKMVFIKVDVDEVSEVTEKENITSMPTFKVYKNGSSVDTLLGANDSALKQLIEKYAA
On to B1, for which the binding result is listed as “no binding (tested: 10 µM)”.
